# Among all 210,000 compounds or so, about 5,900 (2.8%) were called active. Not shown: some 5% with an inconclusive outcome. The call rests on the fitted dose curve; in most records, active means well fitted activation curve with a large enough effect; inconclusive means small, poorly fitted or top-dose-only effect; inactive means no such curve, though single readings can be large or run the other way. Some of the results follow.
# Chains of the proteins cited; added tags and fusions are not shown.
# UniProt Q16637, whole entry: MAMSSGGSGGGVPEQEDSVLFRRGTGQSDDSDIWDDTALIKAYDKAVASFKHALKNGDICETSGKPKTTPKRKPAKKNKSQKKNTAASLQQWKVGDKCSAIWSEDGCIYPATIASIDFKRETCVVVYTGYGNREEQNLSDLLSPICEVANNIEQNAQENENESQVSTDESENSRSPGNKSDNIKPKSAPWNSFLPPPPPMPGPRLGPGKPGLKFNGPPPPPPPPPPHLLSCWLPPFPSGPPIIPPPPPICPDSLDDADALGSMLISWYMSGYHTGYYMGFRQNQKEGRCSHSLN
# Target: Survival motor neuron protein, Homo sapiens (UniProt Q16637)
# Assay: qHTS Assay for Enhancers of SMN2 Splice Variant Expression
row,Compound,outcome
1,COc1cc(-c2nc3cnccn3c2Nc2ccc(C(C)C)cc2)ccc1O,inactive
2,COc1ccc(C2Sc3ccccc3N(CCN(C)C)C(=O)[C@@H]2OC(C)=O)cc1 (stereo partly drawn),inactive
3,COc1ccc2[nH]c(=O)c3c(c2c1)OC(C)(C)C=C3,inactive
4,CC1=C(C#N)C(NC(=O)c2ccccc2Cl)(C(F)(F)F)C(=O)N1 (stereo not drawn),inactive
5,Cc1ncc([N+](=O)[O-])n1CC(C)O (stereo not drawn),inactive
6,Cc1cccc(Cn2c(Cc3ccccc3)nc3ccccc32)c1,inactive
7,COc1ccc2nc(C)cc(SCC(=O)[O-])c2c1.[Na+],inactive
8,NCCc1cccc(O)c1,inactive

# In a second layout: results already given.
row	Compound	outcome
4	CC1=C(C#N)C(NC(=O)c2ccccc2Cl)(C(F)(F)F)C(=O)N1 (stereo not drawn)	inactive
5	Cc1ncc([N+](=O)[O-])n1CC(C)O (stereo not drawn)	inactive

# Source: the GenesisPotency data set
